According to PubChem BioAssay AID485314 (National Center for Advancing Translational Sciences (NCATS), 2010):
Values joined by “and” are separate entries in the source; they are usually repeats but may differ in a detail not shown here. Identical values can stand only once. Screen size: about 340,000 compounds; about 4,500 (1.3%) were called active. The shares of active, inactive and inconclusive entries below differ from those in the screen. Calls follow the shape of the dose curve; as a rule, active = well fitted inhibition curve with a large enough effect; inconclusive = small, poorly fitted or top-dose-only effect, or another doubt; inactive = no such curve, though single readings can be large or run the other way. A potency beside an inconclusive call is a rough fit, not a confirmed value.

biological target: DNA polymerase beta (Homo sapiens) (UniProt P06746); assay: qHTS Assay for Inhibitors of DNA Polymerase Beta; conditions: Pol beta primer extension/strand displacement, fluorescence kinetic; activity change, negative = inhibition: at 114 µM (top of the series)
How it was run: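 Preincubation: enzyme (10 nM) with compound, 15 min, RT. Reaction: substrate added to 50 nM final. Reads: 0 and 10 min. Analysis: normalized, Hill fit.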
% is scaled to controls: 0 for no effect and ±100 for the full control effect; potency is read from the fitted curve at half-maximal effect.

Structure (SMILES)	activity change, negative = inhibition	Potency
O=C(O)c1ccc2c(=O)n3c(nc2c1)/C(=C/c1ccc(Cl)c(Cl)c1)CC3	inactive: -0.128%	–
Cc1cc(/C=C2/NC(=S)NC2=O)c(C)n1-c1cccnc1	–	inconclusive: 100 µM [inhibitor, partial curve, poor fit]
O=C1Nc2ccccc2Nc2ccccc21	inactive: -0.0504%	–
O=C(O)CSc1nnnn1-c1ccccc1	–	inconclusive: 100 µM [inhibitor, single point]
CCOC(=O)N/N=C(C)/C=C/c1ccco1	inactive: 14.4%	–
CCN(Cc1ccccc1)C(=O)c1cc(S(=O)(=O)N2CCOCC2)cn1C	inactive: 13.3%	–
CC(=O)NC12CC3CC(C1)CC(C(=O)OCC(=O)Nc1ncc(Cl)c(C)c1Cl)(C3)C2	–	inconclusive: 14.1 µM [inhibitor, full curve]
CCn1c(C)c(C)c2cc(C(=O)NCc3ccc(OC)cc3OC)ccc21	inactive: -1.44%	–
CC(C)NC(=O)c1cc2cc([N+](=O)[O-])ccc2s1	–	inconclusive: 56.2 µM [inhibitor, partial curve]
COc1ccc(NC(=O)Cn2c(=O)n(Cc3ccccc3Cl)c(=O)c3cc(OC)c(OC)cc32)cc1OC	inactive: 4.16%	–
CCN(c1ccc(F)cc1)S(=O)(=O)c1ccc2[nH]cc(C(=O)NCCCN3CCOCC3)c(=O)c2c1	inactive: 0.787%	–
O=C(CSc1nc2c([nH]c3ccccc32)c(=O)n1-c1ccccc1)N1CCOCC1	–	inactive and inconclusive: 31.6 µM [inhibitor, partial curve, poor fit]
CCCCC1=CC2=CC(=O)C(C)(OC(=O)CC)C(=O)C2=CN1c1ccc(OC)cc1 (stereo not given)	–	inconclusive: 0.562 µM [inhibitor, full curve, poor fit]
CSc1ccc(/C=C/c2cc(=O)c3ccccc3[nH]2)cc1	–	inconclusive: 56.2 µM [inhibitor, partial curve]
O=C1NC(=O)C2(COC3(CCCC3)OC2)S1	–	inconclusive: 14.1 µM [inhibitor, full curve, poor fit]
C=C(C)C(=O)Nc1cccc(C2=NOC3(C2)C[C@@H](C(N)=O)N(C(=O)CC(c2ccccc2)c2ccccc2)C3)c1 (stereo not given in full)	–	active: 12.6 µM
COc1cc(/C=N/NC(=O)c2ccc(CN(C)S(=O)(=O)c3ccc(C)cc3)cc2)ccc1O	–	inconclusive: 89.1 µM [inhibitor, single point]
O=C(O)C(Cc1ccccc1)N1C(=O)/C(=C/C=C/c2ccco2)SC1=S (stereo not given)	–	active: 1.58 µM
COC(=O)c1ccc(NC(=O)Cn2c(=O)nc(-c3ccccc3)c3ccccc32)cc1	inactive: 1.19%	–
CCOC(=O)c1ccc(NC(=O)Cn2ncc3c(C)n(Cc4ccccc4F)c(C)c3c2=O)cc1	–	inconclusive: 35.5 µM [inhibitor, full curve]
